# Reference: doi:10.1101/406538 (bioRxiv, 2018)
# Results are given in words; binding and its absence hold for the method and conditions named. Binding calls can cover weak binding; strength is not graded here.
# B1: ATG8f, processed form (1-117), recombinant (natural protein, Arabidopsis thaliana, UniProt Q8VYK7 1-117, looked up)
# chain: MAKSSFKQEHDLEKRRAEAARIREKYPDRIPVIVEKAEKSDIPTIDKKKYLVPADLTVGQFVYVIRKRIKLSAEKAIFIFVDNVLPPAGALMSSVYEEKKDDDGFLYVTYSGENTFG
# Biological target: ATI1-N, N-terminal region of ATG8 Interacting Protein 1 (M1-E180) (Arabidopsis thaliana)
# Assay: NMR titration
binder,measurement,value
B1,binding,binds
